From paper PMC7950127 come the findings set out here.

By UniProt entry, the sequences of proteins in these tests, tags left out. Where a name states a change or a piece, a line headed by the entry shows the natural chain unless it says otherwise. Residues count along the entry.
UniProt Q83BS7: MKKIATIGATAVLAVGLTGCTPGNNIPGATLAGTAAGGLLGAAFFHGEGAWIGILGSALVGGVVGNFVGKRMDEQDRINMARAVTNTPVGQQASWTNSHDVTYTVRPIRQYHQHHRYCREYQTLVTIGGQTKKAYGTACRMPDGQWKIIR
UniProt P31040, residues 43-664: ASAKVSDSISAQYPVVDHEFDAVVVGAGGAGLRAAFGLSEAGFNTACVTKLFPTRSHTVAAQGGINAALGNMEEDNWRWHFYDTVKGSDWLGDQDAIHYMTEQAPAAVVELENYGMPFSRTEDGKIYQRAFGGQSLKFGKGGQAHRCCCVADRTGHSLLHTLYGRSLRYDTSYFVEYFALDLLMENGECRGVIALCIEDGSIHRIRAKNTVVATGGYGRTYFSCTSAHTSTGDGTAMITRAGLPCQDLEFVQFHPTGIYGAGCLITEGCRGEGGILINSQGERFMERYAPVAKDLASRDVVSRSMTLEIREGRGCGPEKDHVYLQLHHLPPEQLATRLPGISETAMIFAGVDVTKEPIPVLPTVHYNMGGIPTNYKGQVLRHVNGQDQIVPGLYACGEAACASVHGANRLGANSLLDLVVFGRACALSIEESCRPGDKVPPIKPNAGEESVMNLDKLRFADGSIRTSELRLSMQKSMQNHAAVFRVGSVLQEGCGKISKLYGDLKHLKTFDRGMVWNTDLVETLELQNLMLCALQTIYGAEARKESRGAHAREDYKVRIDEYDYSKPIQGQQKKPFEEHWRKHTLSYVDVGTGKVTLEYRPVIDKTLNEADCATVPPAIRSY

The assay deals with Mitochondrial Coxiella effector protein C (MceC, CBU1425) with C-terminal 3XFLAG (Coxiella burnetii) (UniProt Q83BS7). The experiment in a line: co-IP.

No constants are given. Whether binding was seen depends on the method and setting. In cells and extracts the contact can be indirect.

Take SDHA (from UniProt P31040 43-664): the binding entry is “no binding”.
